The record followed here is article doi:10.1101/2023.02.08.527750.

The chains behind the UniProt entries cited, without tags or fusion partners.
UniProt Q9Y265: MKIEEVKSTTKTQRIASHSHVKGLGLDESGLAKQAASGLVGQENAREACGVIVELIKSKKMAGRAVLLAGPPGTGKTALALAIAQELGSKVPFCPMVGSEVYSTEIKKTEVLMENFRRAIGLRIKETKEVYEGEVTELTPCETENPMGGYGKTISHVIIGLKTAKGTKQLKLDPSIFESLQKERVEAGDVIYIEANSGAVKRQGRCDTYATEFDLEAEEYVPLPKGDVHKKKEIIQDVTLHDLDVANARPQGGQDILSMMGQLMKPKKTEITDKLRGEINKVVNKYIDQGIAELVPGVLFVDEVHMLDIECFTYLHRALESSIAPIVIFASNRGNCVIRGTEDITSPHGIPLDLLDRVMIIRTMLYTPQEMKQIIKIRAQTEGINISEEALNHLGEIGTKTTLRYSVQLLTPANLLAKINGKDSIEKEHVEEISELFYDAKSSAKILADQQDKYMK

Experiment [1] concerns the target T1, ITFG1-Myc (full-length ITFG1 with a Myc tag at the C-terminal) (human) (UniProt Q8TB96).
T1 sequence: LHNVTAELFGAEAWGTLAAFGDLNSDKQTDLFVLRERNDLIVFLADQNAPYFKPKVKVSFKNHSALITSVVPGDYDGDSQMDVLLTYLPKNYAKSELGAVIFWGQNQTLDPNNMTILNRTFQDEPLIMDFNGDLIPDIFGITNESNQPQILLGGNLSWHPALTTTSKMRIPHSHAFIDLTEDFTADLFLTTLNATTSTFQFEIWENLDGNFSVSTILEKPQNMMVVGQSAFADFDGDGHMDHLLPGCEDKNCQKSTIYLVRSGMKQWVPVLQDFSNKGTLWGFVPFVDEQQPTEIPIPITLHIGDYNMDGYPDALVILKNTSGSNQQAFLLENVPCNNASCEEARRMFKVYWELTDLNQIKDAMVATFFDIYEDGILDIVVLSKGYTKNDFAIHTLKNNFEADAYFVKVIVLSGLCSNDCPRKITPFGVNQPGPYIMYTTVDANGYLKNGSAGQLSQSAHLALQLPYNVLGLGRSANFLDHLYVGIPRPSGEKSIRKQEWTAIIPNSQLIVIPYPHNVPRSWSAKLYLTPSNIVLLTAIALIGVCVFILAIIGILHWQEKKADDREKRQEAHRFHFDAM
As to the kind of experiment: co-IP.

The target of experiment [2] is FLAG-RUVBL1 (full-length RUVBL1 with N-terminal 3xFLAG tag) (human) (UniProt Q9Y265). As to the kind of experiment: co-IP.

These are yes or no findings as the source states them, for the method shown. Binding seen in cells or lysates may run through a third protein. Some entries that bind do so weakly or less than the wild type. Sequences can lack the tags named with a protein.

In the case of “RUVBL1 (endogenous) (from UniProt Q9Y265 1-456)”, the binding entry in experiment [1] was “binds”.

B1: ITFG1-Myc (full-length ITFG1 with a Myc tag at the C-terminal) (protein, UniProt Q8TB96 34-612)
chain: T1 sequence
Consider B1, for which the binding entry in experiment [2] is “binds”.
